Laboratory results from PubChem BioAssay AID1688 (National Center for Advancing Translational Sciences (NCATS), 2009).
Where “and” joins values, the source holds several entries; their conditions need not be identical. Equal entries are not always repeated. Hit rate of the full screen: of about 220,000 compounds, about 2,400 (1.1%) were called active. Inconclusive results, whose numbers are uncertain, are shown with a selection of clear calls. Calls come from the whole dose curve; as a rule, active = well fitted inhibition curve with a large enough effect; inconclusive = small, poorly fitted or top-dose-only effect, or effect the other way; inactive = no such curve, though single readings can be large or run the other way. Where the call is inconclusive, the potency comes from a doubtful curve fit.

Assay: qHTS Multiplex Assay to Identify Dual Action Probes in a Cell Model of Huntington: Aggregate Formation (GFP); note: nearly all actives have a fitted effect of over 60% in size
Conditions: PC12 HttQ103-GFP aggregates, Acumen cytometry, 40 h; activity change, negative = inhibition: at 46.1 µM (top of the series) unless noted
In short: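 PC12/HTTQ103-GFP, ecdysone-inducible; teb 100 nM; cpd qHTS titration; GFP aggregates read on laser cytometer, Ex 488/Em 500-530 nm.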
% is set by controls: 0 for no effect and ±100 for the full control effect; potency is the fitted concentration of half-maximal effect.

Compound | Potency | activity change, negative = inhibition
O=C1NC(=O)/C(=C\c2ccc(Cl)nc2)S1 | inconclusive: 35.5 µM [inhibitor, single point] | –
Cc1ccc(-c2nc3c(c(=O)[nH]c(=O)n3Cc3ccccc3)n2Cc2ccccc2)o1 | inactive | –
Cc1ccccc1OCc1n(CC(=O)OC2CC(C)CCC2C(C)C)c2ccccc2[n+]1C (stereo unspecified) | inconclusive: 35.5 µM [inhibitor, single point] and inconclusive: 14.1 µM [inhibitor, single point] | –
Cc1cc(C)cc(C(=O)Nc2ccc(N3CCN(S(C)(=O)=O)CC3)cc2)c1 | – | inactive: 8.61% [at 9.22 µM]
O=C(CN1C(=O)S/C(=C\C=C\c2ccccc2)C1=O)Nc1ccc(O)cc1 | inconclusive: 7.08 µM [activator, partial curve] | –
Cc1nc2c(o1)CCc1ccccc1C2N1CCN(C)CC1 (stereo unspecified) | inconclusive: 0.562 µM [activator, full curve, poor fit] | –
CCOC(=O)c1cnc2ccc(C)cc2c1OCc1cc(F)cc(F)c1 | inactive | –
CNC(=O)COC(=O)c1ccc(Cl)c(S(=O)(=O)N2CCCC2)c1 | inconclusive: 5.62 µM [inhibitor, single point] | –
COc1cc(Cl)c(C)cc1NC(=O)CN(C)Cc1cccc(OC)c1OC | inconclusive: 35.5 µM [inhibitor, single point] | –
Cc1ccc(OC(=O)c2ccc(N3CCOCC3)c([N+](=O)[O-])c2)cc1 | inactive | –
CC(C)=CCSc1nnc(CCNC(=O)OC(C)(C)C)o1 | inconclusive: 2.24 µM [inhibitor, partial curve] | –
CC(C)(C)NC(=O)C(c1ccccc1)N(C(=O)c1ccco1)C1CC1 (stereo unspecified) | inconclusive: 0.562 µM [activator, partial curve, poor fit] | –
COc1ccccc1Oc1ccc(S(=O)(=O)N2CCCC2)cc1 | inconclusive: 5.62 µM [inhibitor, single point] | –
CCN(CC)S(=O)(=O)N1CCC(C(=O)NCCC2=CCCCC2)CC1 | inconclusive: 35.5 µM [inhibitor, partial curve, poor fit] | –
C=CCN1C(=O)S/C(=C\c2ccc(N3CCOCC3)cc2C)C1=O | inconclusive: 22.4 µM [inhibitor, single point] | –
O=C(Cc1csc(Nc2nc(=S)[nH]c3ccccc23)n1)N1CCN(c2cccc(Cl)c2)CC1 | inconclusive: 35.5 µM [inhibitor, single point] | –
COc1ccccc1OCCNc1cc(N2CCCCC2)ccc1[N+](=O)[O-] | inconclusive: 35.5 µM [inhibitor, single point] | –
Cc1nc2ccccc2c(=O)n1NC(=O)COc1ccccc1 | inconclusive: 3.98 µM [activator, single point] | –
Cc1ccc(S(=O)(=O)c2c(C)nn(C(C)(C)C)c2OC(=O)CC(C)C)cc1 | inconclusive: 35.5 µM [inhibitor, single point] | –
CCN1C(=O)CC(Sc2ccccc2N)C1=O (stereo unspecified) | inconclusive: 0.501 µM [activator, full curve, poor fit] | –
COc1cccc(-n2nc(C(=O)Nc3ccc4c(c3)OCO4)c3ccccc3c2=O)c1 | inconclusive: 2 µM [inhibitor, partial curve] | –
COC(=O)c1cn(NC(=O)c2cnccn2)c(=O)c2ccccc12 | active: 8.91 µM | –

Compound | Potency | activity change, negative = inhibition
COc1ccc(NC(=O)c2cccc(S(=O)(=O)Nc3ccc(Br)cc3)c2)cn1 | inconclusive: 15.8 µM [inhibitor, single point] | –
CC(=O)c1cc2c(cc1N/C(=N/S(=O)(=O)c1ccccc1)c1ccc(Cl)cc1)OCO2 | inconclusive: 1.26 µM [inhibitor, single point] | –
Cc1oc(C(=O)O)cc1COc1ccc2c3c(c(=O)oc2c1)CCC3 | inconclusive: 12.6 µM [activator, partial curve] | –
Cc1nc(N)c(C#N)c(-c2cccnc2)c1C | active: 6.31 µM | –
O=C(CSc1cccc2cccnc12)N/N=C/c1cccnc1 | inconclusive: 35.5 µM [inhibitor, single point] | –
Cc1cc(C)c(OCC(=O)Nc2nc(-c3ccccn3)cs2)c(C)c1 | inactive | –
Cc1cc(OCC(C)C)ccc1/C(O)=C1/C(=O)C(=O)N(Cc2cccnc2)C1c1ccncc1 (stereo unspecified) | inactive | –
Cc1cc(C(=O)CSc2nc3ccccc3c(=O)[nH]2)c(C)n1CC1CCCO1 (stereo unspecified) | inconclusive: 1.78 µM [inhibitor, partial curve] | –
O=C(NCCc1ccccc1)c1c(O)c2cccc3c2n(c1=O)CC3 | inconclusive: 25.1 µM [inhibitor, partial curve] | –
COc1ccc(CN(C(=O)CSc2nnc(-c3ccccc3C)o2)c2ccc(F)cc2)cc1 | inconclusive: 10 µM [inhibitor, partial curve, poor fit] | –
CC(C)(C)NC(=S)NNC(=O)c1ccccc1Cl | inconclusive: 0.891 µM [inhibitor, single point] | –
CC1(C)C/C(=N\NC(=S)Nc2ccccc2F)c2cc(O)ccc2O1 | inactive | –
C/C=C/COC(=O)c1[nH]c2c(c1C)C(=O)CC(c1ccc(N(C)C)cc1)C2 (stereo unspecified) | inconclusive: 4.47 µM [inhibitor, single point] | –
COc1ccc(S(=O)(=O)Oc2ccc3c(c2)O/C(=C\c2cccnc2)C3=O)cc1 | inconclusive: 20 µM [inhibitor, single point] | –
COc1cccc(N2CCN(c3c(C#N)c(C(F)(F)F)nn3C)CC2)c1 | active: 11.2 µM | –
COn1c(SCc2ccccc2)nc2ccccc2c1=O | inconclusive: 20 µM [inhibitor, single point] | –
O=C(N/N=C/c1cc(Br)ccc1O)c1ccccc1Cl | active: 3.98 µM | –
CSC1=C(C#N)C(c2ccc3c(c2)OCO3)C2=C(CCCC2=O)N1 (stereo unspecified) | inconclusive: 11.2 µM [inhibitor, single point] | –
Cc1nn(CC(=O)NC(C)c2ccccc2)c(=O)c2ccccc12 (stereo unspecified) | inconclusive: 1 µM [inhibitor, single point] | –
CC(C)n1nc(C(=O)Nc2cccc(S(=O)(=O)NCc3ccco3)c2)c2ccccc2c1=O | – | inactive: -41.1% [at 9.22 µM]
Cc1ccc(NC(=O)C2CC(=O)NC(N3CCCCC3)=N2)cc1Cl (stereo unspecified) | inconclusive: 0.562 µM [inhibitor, partial curve, poor fit] | –
CSC(=NC#N)N1CCN(c2ccccc2)CC1 | inconclusive: 7.08 µM [activator, full curve, poor fit] | –

No new results follow: entries from further up.
Compound | Potency | activity change, negative = inhibition
CC(C)n1nc(C(=O)Nc2cccc(S(=O)(=O)NCc3ccco3)c2)c2ccccc2c1=O | – | inactive: -41.1% [at 9.22 µM]
Cc1ccc(NC(=O)C2CC(=O)NC(N3CCCCC3)=N2)cc1Cl (stereo unspecified) | inconclusive: 0.562 µM [inhibitor, partial curve, poor fit] | –
CSC(=NC#N)N1CCN(c2ccccc2)CC1 | inconclusive: 7.08 µM [activator, full curve, poor fit] | –

Next part

Compound | Potency | activity change, negative = inhibition
O=C(c1ccc(OC2CCN(C(=O)c3cccnc3)CC2)cc1)N1CCCCCC1 | inconclusive: 35.5 µM [inhibitor, single point] | –
N#Cc1c(N)nc(SCc2ccccc2)c(C#N)c1-c1ccco1 | inconclusive: 35.5 µM [inhibitor, single point] | –
COc1ccc(C2N(Cc3ccccc3)CCN2Cc2ccccc2)cc1[N+](=O)[O-] | inconclusive: 3.55 µM [activator, partial curve] | –
CC(=O)c1cccc(NC(=O)Nc2cnn(Cc3ccc(Cl)cc3Cl)c2)c1 | inactive | –
Cc1ccc(CNS(=O)(=O)c2ccc(C(C)(C)C)cc2)n1C | inconclusive: 15.8 µM [activator, single point] | –
CCN(CC)S(=O)(=O)c1cccc(-c2n[nH]c(=S)n2/N=C/c2ccc(OC(F)F)cc2)c1 | active: 22.4 µM | –
O=C(Nc1nnc(-c2ccc3c(c2)CCCC3)o1)c1ccccc1Cl | active: 11.2 µM | –
COC(=O)/C(=C\Nc1ccccc1N)c1ncc(C(F)(F)F)cc1Cl | inconclusive: 11.2 µM [activator, partial curve] | –
O=C(Nc1ccon1)c1cccc(S(=O)(=O)N2CCCCC2)c1 | inconclusive: 10 µM [inhibitor, partial curve] | –
COc1ccc(-c2nc(N3CCCCCC3)sc2C(=O)c2ccccc2)cc1 | inconclusive: 22.4 µM [inhibitor, single point] | –
O=C(NCCc1ccccc1)c1ccnc(/C=N/O)c1 | inconclusive: 0.631 µM [inhibitor, single point] | –
CCCCNc1ccc2c3c(cccc13)C(=O)N(CCCC)C2=O | inconclusive: 5.01 µM [inhibitor, single point] | –
O=C(NN=C(Cc1ccccc1)Cc1ccccc1)c1ccncc1 | – | inactive: 6.59% [at 9.22 µM]
COc1ccc(-n2nc(C(=O)N3CCCCC3)c3ccccc3c2=O)cc1 | active: 2.82 µM | –
CC1CCc2cc(F)cc3c(O)c(C(=O)NCC4CCCO4)c(=O)n1c23 (stereo unspecified) | inconclusive: 22.4 µM [inhibitor, single point] | –
CCc1ccc(/C=N/NC(=O)c2cc(-c3ccncc3)nc3ccccc23)s1 | inconclusive: 0.794 µM [inhibitor, single point] | –
CCCN1CCC(=O)N([C@H](CSc2ccc(C)cc2)Cc2ccccc2)CC1 | inconclusive: 5.62 µM [activator, single point] | –
O=C(CCl)N(Cc1cccc([N+](=O)[O-])c1)c1cccc(Cl)c1 | inconclusive: 35.5 µM [inhibitor, single point] | –
Cc1nn(C(=O)c2cccnc2)c(C)c1Sc1ccc(Br)cc1 | inactive | –
COC(=O)C1=C(C)N(c2ccc(C)c(C)c2)/C(=C/c2ccc(O)cc2)C1=O | inconclusive: 35.5 µM [inhibitor, single point] | –
O=C(O)c1cc(-c2ccc(/C=N/N3C(=O)C4C5C=CC(CC5)C4C3=O)o2)ccc1Cl (stereo unspecified) | – | inactive: -12.4% [at 9.22 µM]
Cc1nn(-c2ccc(C(F)(F)F)cn2)c(C)c1Oc1ccccc1O | inconclusive: 35.5 µM [inhibitor, partial curve] | –
